From PMC7819943, “Rice protein-binding microarrays: a tool to detect cis-acting elements near promoter regions in rice”
The list shows a part of the results.

Target: T1, OsSMF1 (Oryza sativa, UniProt Q6ZLB0 1-436)
T1 sequence: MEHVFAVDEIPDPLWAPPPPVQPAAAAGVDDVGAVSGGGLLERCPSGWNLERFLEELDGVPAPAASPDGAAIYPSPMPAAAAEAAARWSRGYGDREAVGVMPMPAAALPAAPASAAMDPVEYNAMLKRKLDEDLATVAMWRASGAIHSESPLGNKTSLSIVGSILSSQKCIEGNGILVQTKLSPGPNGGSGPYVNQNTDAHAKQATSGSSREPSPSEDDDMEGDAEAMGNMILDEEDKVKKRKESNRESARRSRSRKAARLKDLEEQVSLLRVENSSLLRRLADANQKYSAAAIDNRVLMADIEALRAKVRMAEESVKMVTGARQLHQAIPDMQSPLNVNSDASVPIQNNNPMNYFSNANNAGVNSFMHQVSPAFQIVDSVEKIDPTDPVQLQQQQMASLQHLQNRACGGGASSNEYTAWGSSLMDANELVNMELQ
Test: protein-binding microarray (RPBM); PBS, 2% BSA, 51.3 ng/ul salmon testes DNA, 50 uM zinc acetate, 200 nM TF, 25 C, 1 h; high values mean tight binding
Conditions: protein: recombinant; tags: N-terminal polyhistidine and DsRed monomer fusion (pET32a); chain copies: 2; label: CyDye5-dUTP incorporated in the synthesized complementary strand; 3' TTTTT single-stranded linker to array surface; dsDNA, one strand shown
In short: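 Binding signal is reported as fluorescence intensity per feature (arbitrary units) from an Axon 4000B scanner. Incubation used 200 nM of each Ni–NTA-purified, N-terminally polyhistidine- and DsRed-fused transcription factor from E. coli BL21-CodonPlus on a double-stranded custom Agilent array for 1 h at 25 °C, with 50 µM zinc acetate in the buffer, followed by washing.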

First: TAAGTGCTACGTCAATGCCACGTGACACGAAAACTTAGTTCGGAGTCACCTAGTGCAG
Second: CACCAAGACACGCCAGCTTCTTCCTCTTCTCCTCCTCCTTCGGAGTCACCTAGTGCAG
The binding signal of the first is higher: 13300 fluorescence intensity (a.u.) for the first, 4370 fluorescence intensity (a.u.) for the second.

Going from “GTACCAATTTAATTTATGTATCAATAAGAACATATCATGTCGGAGTCACCTAGTGCAG” to “AGGCTGGGTTGGTTGCCTAGATGATCGTCATCAGCTAGAACGGAGTCACCTAGTGCAG”, the binding signal rises from 4640 fluorescence intensity (a.u.) to 5050 fluorescence intensity (a.u.).

First: GCAAACAAATACAACCTCACATGTTACACGTAGCAAACCGCGGAGTCACCTAGTGCAG
Second: CCTAGGTTCACGTGGACGTGGACGTTTACGCGTGTGTTGTCGGAGTCACCTAGTGCAG
The binding signal of the first is higher: 5800 fluorescence intensity (a.u.) for the first, 4970 fluorescence intensity (a.u.) for the second.

Going from “CAGCAGGAGGGGAGGGTGGTGAGTCAGGTGGCAATCCGTGCGGAGTCACCTAGTGCAG” to “TCCACAGTTGATGTCACGTAAGATGAAGAACATGTCAGCACGGAGTCACCTAGTGCAG”, the binding signal falls from 13900 fluorescence intensity (a.u.) to 5520 fluorescence intensity (a.u.).

Going from “CCAACTCACACACACTAAACATATTTACACACGCAGCACACGGAGTCACCTAGTGCAG” to “AGAGAATGGATTCAACTTGCACATACTGCTGCTCGTCACACGGAGTCACCTAGTGCAG”, the binding signal rises from 3160 fluorescence intensity (a.u.) to 3380 fluorescence intensity (a.u.).

Going from “GAAACAAAGGACCGACTCCGCCTATCCATCGTCACGAGCACGGAGTCACCTAGTGCAG” to “CTCGGTGATGCAGGTTGGCTCGCAACGCCAACGTGTTGTGCGGAGTCACCTAGTGCAG”, the binding signal falls from 3760 fluorescence intensity (a.u.) to 3400 fluorescence intensity (a.u.).

First: AGTAAGAATATTAAATGTGAGTCATGAGTCAACGGGGTCACGGAGTCACCTAGTGCAG
Second: GCTAGCCGGGTGCATTCGTCACTACACTTTTCTAATTTCTCGGAGTCACCTAGTGCAG
The binding signal of the first is higher: 7880 fluorescence intensity (a.u.) for the first, 3700 fluorescence intensity (a.u.) for the second.

First: CTCGGGCCGTGCCGGCACGAGATGCCACGGTTCACATGAGCGGAGTCACCTAGTGCAG
Second: CATCGTGCCGCACCCGATTCCTCATCCGCGTCATCTCCACCGGAGTCACCTAGTGCAG
The binding signal of the first is higher: 35900 fluorescence intensity (a.u.) for the first, 7800 fluorescence intensity (a.u.) for the second.

Going from “TCACGAGCCGCCGCTCGTTACACGTTCGCGCCGTATATTACGGAGTCACCTAGTGCAG” to “TTAATCGTACACTAAGCTTTTACATTAGTACTAGAGCTAACGGAGTCACCTAGTGCAG”, the binding signal falls from 28100 fluorescence intensity (a.u.) to 3860 fluorescence intensity (a.u.).

Compared with “GCAGCCGGTGACACCACAAAATCCTCTCGCGCTCTCGCTCCGGAGTCACCTAGTGCAG”, “GCATGGTTGTCGCCGCGACACGTGCCGGCGCGCGCACCTCCGGAGTCACCTAGTGCAG” is higher in binding signal: 3900 fluorescence intensity (a.u.) for the first, 6430 fluorescence intensity (a.u.) for the second.

Compared with “CGGTCTCTCGCCTTGTCACCTTACTTGCTTGGCTACTACTCGGAGTCACCTAGTGCAG”, “TCCAAGAAAGTGACCAAGCAAATGACGCAAGTGGTGCACGCGGAGTCACCTAGTGCAG” is higher in binding signal: 5610 fluorescence intensity (a.u.) for the first, 40200 fluorescence intensity (a.u.) for the second.

With “GCCCACTTATGGTGGGCCCCGTGGGCCCCACGTGTCACTTCGGAGTCACCTAGTGCAG” the binding signal was 16100 fluorescence intensity (a.u.).
